PubChem BioAssay AID2685 (National Center for Advancing Translational Sciences (NCATS), 2010)
About 2,100 (0.66%) of roughly 320,000 compounds were called active. Inconclusive results, whose numbers are uncertain, are shown with a selection of clear calls. Calls follow the shape of the dose curve; as a rule, active = well fitted inhibition curve with a large enough effect in the signal ratio, with a control signal flat (not every such curve was filed as active); inconclusive = small, poorly fitted or top-dose-only effect, or effect the other way, or a change in a side signal; inactive = flat fitted curve, though single readings scatter; the % refers to the signal ratio. Potencies of inconclusive entries are doubtful fits and often do not repeat.

assay: qHTS Assay for Lipid Storage Modulators in Drosophila S3 Cells; details: BODIPY lipid droplet fluorescence, 18-24 h, cells fed with added oleic acid; lipid storage change, negative = inhibition: at 46.1 µM (top of the series) unless noted
How it was run: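 Laser-scanning cytometry quantifies lipid droplet accumulation (500–530 nm total intensity; droplet/cell object ratio) in oleic acid-fed (400 uM added) Drosophila S3 cells treated with a concentration series. 20 uM Triacsin C defined 100% inhibition.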
% is scaled to controls: 0 for no effect and ±100 for the full control effect; potency is read from the fitted curve at half-maximal effect.

SMILES	lipid storage change, negative = inhibition	Potency
CCCCC(CC)CNC(=O)C1C2C=CC(C2)C1C(=O)O (stereo not given)	inconclusive: -18.3%	
CCOc1c(OC)cccc1C1CC(=O)Nc2cc3c(cc21)OCCO3 (stereo not given)	inconclusive: -2.45%	
CCc1ccc(NC(=O)CC2C(=O)NCCN2C(=O)c2ccc(F)cc2)cc1 (stereo not given)	inconclusive: 12.5%	
CCc1cc(Cn2nc(-c3ccccc3)cc2C(=O)NCc2cccs2)on1		inconclusive: 0.164 µM [cytotoxic, full curve, poor fit]
Cc1ccc(NC(=O)CN2C(=O)NC(C)(c3ccc(Cl)cc3)C2=O)cc1 (stereo not given)	inconclusive: 45.2%	
CCOC(=O)c1nc(C)n(-c2cc(OC)c(Cl)cc2Cl)n1	inconclusive: -30.9%	
CC1(C)CC(=O)C=C(NNC(=O)c2cccnc2)C1		inconclusive: 1.84 µM [falling, single point]
CCN(C(=O)CSc1nc2c(cnn2-c2ccccc2)c(=O)[nH]1)C1CCS(=O)(=O)C1 (stereo not given)	inconclusive: -23.7%	
CC(NCC(O)COc1ccc(S(=O)(=O)N2CCOCC2)cc1)c1ccccc1 (stereo not given)		inconclusive: 2.31 µM [activator, single point]
NS(=O)(=O)c1ccc(NC(=O)CCCC(=O)O)cc1		inconclusive: 3.26 µM [falling, partial curve]
Cc1nnc(SCC(=O)NCc2ccccc2Cl)[nH]c1=O		inconclusive: 6.51 µM [cytotoxic, single point]
CCOC(=O)c1cc(NC(=O)c2ccc(OC)cc2)c(=O)oc1-c1ccccc1	inconclusive: 5.9%	
O=C(N/N=C/c1sc(N2CCOCC2)nc1-c1ccccc1)c1ccccc1F	inconclusive: 3.33%	
CCc1cc(=O)oc2cc(OCC(=O)NCC3CCC(C(=O)O)CC3)ccc12 (stereo not given)	inconclusive: 5.07%	
CC(c1n[nH]c(=S)n1-c1ccccc1)N1CCCCC1 (stereo not given)	inconclusive: -43%	
CCN1C(=O)c2cccc3c(S(=O)(=O)Nc4ccccc4OC)ccc1c23		inconclusive: 18.4 µM [falling, partial curve]
O=C(Nc1nccs1)c1sc2ccccc2c1Cl		inconclusive: 9.2 µM [activator, partial curve, poor fit]
COC(=O)c1c(-c2ccccc2)nn(-c2ccccc2)c1C(=O)OC	inconclusive: 22.2%	
COc1ccc(C(c2sc3nc(C)nn3c2O)N2CCN(Cc3ccccc3)CC2)cc1OC (stereo not given)	inconclusive: -8.22%	
Cc1nn(-c2ccc(F)cc2)c(Cl)c1/C=N/NC(=O)c1cccc(S(=O)(=O)N2CCCC2)c1	inconclusive: 60.3%	
CC(=O)Nc1ccc(S(=O)(=O)N(C)CC(=O)Nc2nc3ccccc3[nH]2)cc1	inconclusive	
CCc1noc(C)c1C(=O)OC(C)C(=O)Nc1cc([N+](=O)[O-])ccc1OC (stereo not given)	inconclusive	
CCN1CCN(C(c2ccc(OC)cc2)C(O)C(=O)c2c[nH]c3ccccc23)CC1 (stereo not given)		inconclusive: 2.31 µM [falling, single point]
Cc1ccc(NC(=O)CN(C)Cc2ccc(F)cc2)c([N+](=O)[O-])c1	inconclusive: 5.39%	
Cc1ccc(C)c(NC(=O)C(CC(=O)O)C2CCCO2)c1 (stereo not given)	inconclusive: -8.95%	

SMILES	lipid storage change, negative = inhibition	Potency
CCOc1ccc2[nH]c(=O)c(CN(CCOC)C(=O)N3CCOCC3)cc2c1	inconclusive: 21.8%	
CCc1ccc(C(=O)COC(=O)CNC(=O)Cc2ccccc2)cc1	inconclusive: 417%	
O=C(NNC(=S)Nc1ccccc1)c1cc(-c2cccnc2)nc2ccccc12	inconclusive: 10.3%	
CC1CN(C2CCN(S(=O)(=O)c3ccc4ccccc4c3)CC2)CC(C)O1 (stereo not given)	inconclusive: -0.177%	
COc1ccc(NS(=O)(=O)c2ccc(NC(=O)c3ccc(N(C)S(C)(=O)=O)cc3)cc2)cc1		inconclusive: 20.6 µM [falling, partial curve]
Cc1ccc(C(C)C)c(Oc2nnnn2-c2ccccc2)c1		inconclusive: 18.4 µM [activator, partial curve]
CCN(CC)CCCNC(=O)c1[nH]c(C)c(C(=O)NC2CCCCC2)c1C		active: 25.9 µM
Cc1[nH]c(C)c(S(=O)(=O)Nc2cccc(Cl)c2C)c1C(=O)N1CCCCC1		inconclusive: 29.1 µM [falling, single point]
O=C(COc1ccc(-c2ccccc2)cc1)NNC(=O)NC1CCCCC1	inconclusive: 40.3%	
CCN(C(=O)COC(=O)C1CCN(S(=O)(=O)c2ccc(C)c(C)c2)CC1)C1CCS(=O)(=O)C1 (stereo not given)	inconclusive: -19.8%	
COc1ccc(NC(=O)C2CCC(N3C(=O)C4CCCCC4C3=O)CC2)cc1 (stereo not given)		inconclusive: 7.31 µM [activator, single point]
Cc1cc(/C=C2/NC(=O)NC2=O)c(C)n1-c1cccnc1		inconclusive: 8.2 µM [activator, partial curve]
CC1(C)CC(=O)C2=C(C1)OC1=C(C(=O)CC(C)(C)C1)C2c1ccccc1		inconclusive: 23.1 µM [falling, single point]
Cc1ccc(S(=O)(=O)c2nc(Nc3ccccc3N3CCOCC3)sc2Cl)cc1	inconclusive: -5.43%	
COc1ccc(CCNC(=O)Cn2cnc3scc(-c4ccccc4)c3c2=O)cc1OC		inconclusive: 1.46 µM [falling, full curve]
COc1ccc(OC)c(NC(=O)c2cccc3c2C(=O)N(C2CCCCC2)C3)c1	inconclusive: -171%	
COc1ccc(C2/C=C\CN(S(=O)(=O)c3ccc(-c4ccccc4)cc3)CC(=O)N2Cc2ccc(F)cc2)cc1 (stereo not given)	inconclusive: 18.6%	
Cn1c(=O)c2ncn(CC(=O)NC3CCCCCC3)c2n(C)c1=O	inconclusive: 14.7%	
COc1ccc2oc(C(=O)NCCN3CCOCC3)c(C)c2c1OC	inconclusive: 136%	
CC1(C)CC(=O)C(CC(=O)NC(=O)NCc2ccccc2)=C(O)C1	inactive: 0.0826%	
CC1CCN(S(=O)(=O)c2ccc3c(c2)c(=O)c(C(=O)N2CCCCC2)cn3C)CC1	inconclusive: 42.4%	
COc1ccc(NC(=O)CSc2nnc3c4c(nc(-c5ccccc5)n23)CC(C)(C)OC4)cc1		inconclusive: 14.6 µM [falling, single point]
CCC(NS(=O)(=O)c1ccc(C)cc1)C(=O)N1CCOCCOCCOCCOCC1 (stereo not given)		inconclusive: 29.1 µM [activator, single point]
COC(=O)C1C2CCC(C2)C1C(=O)OCC(=O)c1ccc(C)cc1 (stereo not given)	inconclusive: 33.1%	
Cc1cc(=O)oc(C)c1C(=O)NCCCN1C(C)CCCC1C (stereo not given)	inconclusive: 35.5%	

A draw from above in order of number of heavy atoms, smallest number first:
SMILES	lipid storage change, negative = inhibition	Potency
O=C(COc1ccc(-c2ccccc2)cc1)NNC(=O)NC1CCCCC1	inconclusive: 40.3%	
CC1CCN(S(=O)(=O)c2ccc3c(c2)c(=O)c(C(=O)N2CCCCC2)cn3C)CC1	inconclusive: 42.4%	
COc1ccc(CCNC(=O)Cn2cnc3scc(-c4ccccc4)c3c2=O)cc1OC		inconclusive: 1.46 µM [falling, full curve]

2 entries from above in another layout:
CCOc1c(OC)cccc1C1CC(=O)Nc2cc3c(cc21)OCCO3 (stereo not given)
  lipid storage change, negative = inhibition: inconclusive: -2.45%
O=C(COc1ccc(-c2ccccc2)cc1)NNC(=O)NC1CCCCC1
  lipid storage change, negative = inhibition: inconclusive: 40.3%

Next results follow.

SMILES	lipid storage change, negative = inhibition	Potency
CSc1nsc(SCC(=O)Nc2ccccc2C(=O)O)n1	inconclusive: 32.3%	
c1ccc(-n2nnnc2SCc2cccc3nsnc23)cc1		inconclusive: 7.31 µM [activator, partial curve]
Cc1ccc(C(=O)/C=C/Nc2cccc([N+](=O)[O-])c2)o1		inconclusive: 6.51 µM [rising, single point]
CN(C)CCCn1c(SCC(=O)N2CC(=O)Nc3ccccc32)nc2ccccc2c1=O	inconclusive: 9.2%	
N#Cc1ccc(CSc2nnc(-c3ccncc3)o2)cc1		inconclusive: 0.0046 µM [activator, full curve, poor fit]
CCOc1ccc(Cc2onc3c2C(=O)CCC3)cc1OCC	inconclusive: 17.2%	
CCOc1cccc(C2C(C(=O)c3ccco3)=C(O)C(=O)N2c2nnc(C)s2)c1 (stereo not given)	inconclusive: 22.3%	
O=C1CCCN1CCCNC(=S)Nc1ccc(Cl)cc1Cl	inconclusive: 58.4%	
COc1ccccc1Oc1coc2cc(OCC(N)=O)ccc2c1=O	inconclusive: 16.4%	
O=C(CN1C(=O)c2ccccc2C1=O)OCc1nc2ccsc2c(=O)[nH]1		inconclusive: 29.1 µM [activator, single point]
O=S(=O)(c1ccccc1)[C@@]1(c2ccc(Br)cc2)C[C@@H]2ON=C(c3ccccc3)[C@@H]2C1	inconclusive: 17.5%	
CCc1cc(=O)oc2cc(C)cc(OC(=O)c3ccco3)c12	inconclusive: 10.7%	
O=C(CSc1ccccn1)Nc1ccc2ccccc2c1	inconclusive: 11.7%	
CCCc1ccc2oc(C(=O)N3CCN(CC(=O)NC(C)C)CC3)c(C)c2c1		active: 4.11 µM
Nn1c(Cc2ccccc2)n[nH]c1=S	inconclusive: 0.214%	
CN(C(=O)Cn1cc(C(F)(F)F)cc(Cl)c1=O)C1CCS(=O)(=O)C1 (stereo not given)	inconclusive: 0.673%	
Cc1c(C(=O)Nc2cc(F)ccc2F)sc2nc3n(c(=O)c12)CCCCC3	inconclusive: -51.8%	
O=[N+]([O-])c1ccc(S(=O)(=O)N(CC(O)CN2CCCCC2)c2ccccc2)cc1 (stereo not given)		inconclusive: 0.13 µM [activator, full curve]
CCc1cccc2c(C(=O)COC(=O)c3nccnc3N)c[nH]c12	inconclusive: 10.9%	
Fc1cccc(CNc2ncnc3ccc(-c4ccoc4)cc23)c1	inconclusive: 33.4%	
CCN1C(=O)[C@H]2[C@@H](c3ccc(C)cc3)N3C(=O)N(c4cccc(Cl)c4)C(=O)[C@@]3(Cc3ccc(Cl)cc3)[C@H]2C1=O		inconclusive: 11.6 µM [activator, partial curve]
O=C(Cn1nc(C(=O)O)c2ccccc2c1=O)Nc1ccc(Br)cc1	inconclusive: -57.8%	
Cc1cc(=O)n2ncnc2n1COCCO		inconclusive: 25.9 µM [falling, partial curve, poor fit]
CN(C)/C=C/c1[nH]c(=O)[nH]c(=O)c1[N+](=O)[O-]	inconclusive: 16.5%	
Cc1ccc(NC(=O)c2ccc(OCc3c(C)noc3C)cc2)c(C)c1	inconclusive: 27.5%	
